No constants are given. Whether binding was seen depends on the method and setting. Binding seen in cells or lysates may run through a third protein. Some results given as binding are weak or reduced against the parent protein; the word gives no strength.
Assays:
[1] = molecular target: T1, vascular endothelial cadherin (mouse (endogenous in pMECs)) (UniProt P55284); assay: co-IP; VE-Cadherin immunoprecipitates from lysates of F/F and BRAFΔ/Δ pMEC monolayers; Protein G Sepharose with antibody, 4 °C overnight; 25 mM HEPES, 150 mM NaCl, 1 mM EGTA, 0.5% NP-40, 10% glycerol; immunoblot
T1 sequence: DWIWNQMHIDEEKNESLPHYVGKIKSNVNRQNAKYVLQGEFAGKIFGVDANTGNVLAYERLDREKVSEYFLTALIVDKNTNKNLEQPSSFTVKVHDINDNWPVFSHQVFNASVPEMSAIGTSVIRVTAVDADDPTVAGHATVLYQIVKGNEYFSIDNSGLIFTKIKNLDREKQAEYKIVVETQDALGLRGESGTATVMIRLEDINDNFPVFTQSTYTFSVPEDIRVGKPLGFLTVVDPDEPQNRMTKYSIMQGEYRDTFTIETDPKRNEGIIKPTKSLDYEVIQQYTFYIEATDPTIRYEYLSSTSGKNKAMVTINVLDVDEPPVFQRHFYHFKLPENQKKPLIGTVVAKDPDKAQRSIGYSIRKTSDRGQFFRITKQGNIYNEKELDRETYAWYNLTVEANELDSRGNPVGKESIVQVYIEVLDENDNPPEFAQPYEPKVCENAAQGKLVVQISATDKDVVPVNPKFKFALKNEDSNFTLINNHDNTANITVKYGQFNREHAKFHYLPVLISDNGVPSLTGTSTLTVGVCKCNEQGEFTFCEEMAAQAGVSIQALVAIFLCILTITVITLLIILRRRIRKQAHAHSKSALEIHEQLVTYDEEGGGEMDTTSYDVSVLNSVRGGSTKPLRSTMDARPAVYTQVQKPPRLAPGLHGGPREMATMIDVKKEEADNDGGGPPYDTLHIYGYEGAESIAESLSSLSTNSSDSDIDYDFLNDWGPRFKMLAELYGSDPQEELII

The chains behind the UniProt entries cited, without tags or fusion partners. Residues count along the entry.
UniProt P61586, residues 1-181: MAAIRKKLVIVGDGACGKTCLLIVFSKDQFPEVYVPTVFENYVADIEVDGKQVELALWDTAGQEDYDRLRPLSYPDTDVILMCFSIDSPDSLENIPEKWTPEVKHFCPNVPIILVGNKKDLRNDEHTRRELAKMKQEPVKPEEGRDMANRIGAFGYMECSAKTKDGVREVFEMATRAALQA
UniProt P35918, residues 20-1345: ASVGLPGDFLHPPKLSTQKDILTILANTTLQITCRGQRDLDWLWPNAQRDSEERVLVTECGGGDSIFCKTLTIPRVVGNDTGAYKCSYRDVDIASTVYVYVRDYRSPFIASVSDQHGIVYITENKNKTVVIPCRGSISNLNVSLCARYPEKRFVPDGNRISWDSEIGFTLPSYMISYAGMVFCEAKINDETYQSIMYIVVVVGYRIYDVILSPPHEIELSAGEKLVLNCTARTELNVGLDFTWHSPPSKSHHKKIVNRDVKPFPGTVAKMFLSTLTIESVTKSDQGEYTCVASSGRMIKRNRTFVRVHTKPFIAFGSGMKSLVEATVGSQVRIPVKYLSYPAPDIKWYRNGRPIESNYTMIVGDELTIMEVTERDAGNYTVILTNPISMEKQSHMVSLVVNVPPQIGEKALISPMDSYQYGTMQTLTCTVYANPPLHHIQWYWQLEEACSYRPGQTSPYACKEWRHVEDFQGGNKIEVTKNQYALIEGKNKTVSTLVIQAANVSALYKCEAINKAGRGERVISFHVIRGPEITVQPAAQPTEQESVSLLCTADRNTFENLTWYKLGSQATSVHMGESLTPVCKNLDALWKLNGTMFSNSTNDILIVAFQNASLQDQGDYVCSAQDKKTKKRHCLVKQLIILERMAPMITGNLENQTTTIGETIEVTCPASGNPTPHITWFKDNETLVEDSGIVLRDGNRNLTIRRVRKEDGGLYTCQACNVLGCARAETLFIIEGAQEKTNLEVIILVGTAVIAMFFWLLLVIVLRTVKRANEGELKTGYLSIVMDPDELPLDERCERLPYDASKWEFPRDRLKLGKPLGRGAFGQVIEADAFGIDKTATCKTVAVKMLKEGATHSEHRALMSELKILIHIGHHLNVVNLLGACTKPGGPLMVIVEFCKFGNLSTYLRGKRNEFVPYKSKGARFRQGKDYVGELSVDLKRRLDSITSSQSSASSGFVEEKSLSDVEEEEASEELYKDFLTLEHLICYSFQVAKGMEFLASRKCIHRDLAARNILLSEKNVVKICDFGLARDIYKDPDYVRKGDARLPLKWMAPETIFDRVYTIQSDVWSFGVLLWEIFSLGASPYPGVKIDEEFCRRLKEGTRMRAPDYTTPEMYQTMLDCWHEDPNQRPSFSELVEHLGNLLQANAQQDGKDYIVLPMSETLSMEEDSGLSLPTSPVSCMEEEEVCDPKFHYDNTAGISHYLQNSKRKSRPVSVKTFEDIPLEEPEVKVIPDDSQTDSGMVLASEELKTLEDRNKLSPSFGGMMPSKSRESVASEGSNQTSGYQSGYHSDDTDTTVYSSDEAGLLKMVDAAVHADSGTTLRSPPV
UniProt P28028: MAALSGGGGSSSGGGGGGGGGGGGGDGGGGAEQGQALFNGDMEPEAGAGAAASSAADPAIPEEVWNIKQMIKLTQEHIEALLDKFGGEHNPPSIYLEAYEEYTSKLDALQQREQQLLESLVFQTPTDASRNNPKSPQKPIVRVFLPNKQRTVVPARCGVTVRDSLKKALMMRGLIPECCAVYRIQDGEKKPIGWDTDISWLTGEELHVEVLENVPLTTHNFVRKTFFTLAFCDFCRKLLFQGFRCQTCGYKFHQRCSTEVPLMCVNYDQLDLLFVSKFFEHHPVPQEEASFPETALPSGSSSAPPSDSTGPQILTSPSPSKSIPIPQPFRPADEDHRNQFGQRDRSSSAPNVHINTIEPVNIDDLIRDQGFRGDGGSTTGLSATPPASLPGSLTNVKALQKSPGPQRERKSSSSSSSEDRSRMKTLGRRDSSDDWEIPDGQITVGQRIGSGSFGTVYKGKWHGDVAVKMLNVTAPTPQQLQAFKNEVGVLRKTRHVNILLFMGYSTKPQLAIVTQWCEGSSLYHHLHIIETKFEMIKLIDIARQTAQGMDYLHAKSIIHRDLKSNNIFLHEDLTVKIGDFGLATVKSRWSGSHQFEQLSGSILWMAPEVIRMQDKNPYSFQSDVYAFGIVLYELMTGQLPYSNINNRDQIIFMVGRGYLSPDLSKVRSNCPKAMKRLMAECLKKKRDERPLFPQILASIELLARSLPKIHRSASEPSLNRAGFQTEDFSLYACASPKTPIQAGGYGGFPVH
UniProt Q02248: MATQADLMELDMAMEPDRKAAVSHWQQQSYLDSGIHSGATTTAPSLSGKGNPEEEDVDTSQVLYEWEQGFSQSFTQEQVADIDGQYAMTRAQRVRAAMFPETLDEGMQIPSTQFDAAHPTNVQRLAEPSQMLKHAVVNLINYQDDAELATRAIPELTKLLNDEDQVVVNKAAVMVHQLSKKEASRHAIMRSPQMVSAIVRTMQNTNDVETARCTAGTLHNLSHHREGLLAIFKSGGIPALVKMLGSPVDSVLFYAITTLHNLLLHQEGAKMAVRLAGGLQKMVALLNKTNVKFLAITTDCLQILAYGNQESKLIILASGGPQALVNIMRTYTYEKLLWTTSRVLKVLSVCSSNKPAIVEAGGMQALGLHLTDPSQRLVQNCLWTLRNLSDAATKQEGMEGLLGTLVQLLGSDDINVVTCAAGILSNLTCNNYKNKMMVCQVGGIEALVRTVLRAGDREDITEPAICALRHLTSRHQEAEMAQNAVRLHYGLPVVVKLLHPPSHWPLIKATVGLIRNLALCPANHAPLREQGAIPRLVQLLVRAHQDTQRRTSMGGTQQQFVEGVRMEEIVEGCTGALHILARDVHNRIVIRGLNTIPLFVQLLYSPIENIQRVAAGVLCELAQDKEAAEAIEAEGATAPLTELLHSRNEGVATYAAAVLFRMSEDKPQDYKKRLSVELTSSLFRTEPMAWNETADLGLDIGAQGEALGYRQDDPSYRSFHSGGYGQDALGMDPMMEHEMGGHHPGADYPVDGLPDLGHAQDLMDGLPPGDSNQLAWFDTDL
UniProt P70336: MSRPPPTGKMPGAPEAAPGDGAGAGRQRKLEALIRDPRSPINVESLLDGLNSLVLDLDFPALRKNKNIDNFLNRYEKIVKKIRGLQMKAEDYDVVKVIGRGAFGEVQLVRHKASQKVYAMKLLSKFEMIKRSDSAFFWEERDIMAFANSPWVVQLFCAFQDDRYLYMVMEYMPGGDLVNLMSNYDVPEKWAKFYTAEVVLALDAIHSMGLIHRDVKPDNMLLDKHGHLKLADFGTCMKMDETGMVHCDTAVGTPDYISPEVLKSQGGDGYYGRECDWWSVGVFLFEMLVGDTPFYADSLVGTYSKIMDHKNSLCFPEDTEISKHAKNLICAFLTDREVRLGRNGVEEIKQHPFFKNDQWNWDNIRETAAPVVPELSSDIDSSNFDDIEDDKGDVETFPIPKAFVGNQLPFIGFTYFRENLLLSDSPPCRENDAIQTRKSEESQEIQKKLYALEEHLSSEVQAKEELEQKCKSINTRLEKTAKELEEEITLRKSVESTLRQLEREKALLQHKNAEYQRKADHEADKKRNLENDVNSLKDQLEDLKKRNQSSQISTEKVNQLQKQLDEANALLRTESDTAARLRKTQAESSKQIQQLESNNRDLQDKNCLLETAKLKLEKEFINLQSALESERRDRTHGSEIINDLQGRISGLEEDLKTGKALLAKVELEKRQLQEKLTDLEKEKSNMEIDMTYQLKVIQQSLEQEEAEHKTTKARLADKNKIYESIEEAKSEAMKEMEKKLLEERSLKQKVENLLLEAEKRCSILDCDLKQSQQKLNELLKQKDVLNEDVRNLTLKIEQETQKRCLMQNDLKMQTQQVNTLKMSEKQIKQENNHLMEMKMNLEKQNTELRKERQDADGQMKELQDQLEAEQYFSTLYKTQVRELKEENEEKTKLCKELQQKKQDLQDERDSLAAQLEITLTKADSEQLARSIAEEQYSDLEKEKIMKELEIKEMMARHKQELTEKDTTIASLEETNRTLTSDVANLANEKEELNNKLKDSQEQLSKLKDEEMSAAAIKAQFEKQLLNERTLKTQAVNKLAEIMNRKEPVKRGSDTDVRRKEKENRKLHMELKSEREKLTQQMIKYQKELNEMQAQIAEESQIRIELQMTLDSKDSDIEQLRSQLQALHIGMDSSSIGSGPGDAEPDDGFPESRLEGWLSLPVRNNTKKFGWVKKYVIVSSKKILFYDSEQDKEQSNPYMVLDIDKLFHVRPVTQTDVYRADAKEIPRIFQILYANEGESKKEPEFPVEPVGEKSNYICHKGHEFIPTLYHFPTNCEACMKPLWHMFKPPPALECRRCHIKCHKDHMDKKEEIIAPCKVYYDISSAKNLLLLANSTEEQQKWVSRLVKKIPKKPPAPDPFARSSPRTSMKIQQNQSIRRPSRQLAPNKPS

[2] = molecular target: GST‐tagged GTPγS‐loaded Rho (1–181) (UniProt P61586); assay: pull-down; GTPγS-loaded GST-Rho (1-181) immobilised on GST-resin, incubated with lysates of F/F, BRAFΔ/Δ and RAF1Δ/Δ pMECs stimulated with 200 ng/mL VEGF (160 μg on 70 μL 50% beads), overnight at 4 °C; immunoblot; only the target purified
[3] = molecular target: RAF1 (endogenous, pMECs) (mouse (endogenous in pMECs)) (UniProt Q99N57); assay: co-IP; RAF1 immunoprecipitates from lysates of F/F and BRAFΔ/Δ pMEC monolayers; Protein G Sepharose with antibody, 4 °C overnight; 25 mM HEPES, 150 mM NaCl, 1 mM EGTA, 0.5% NP-40, 10% glycerol; immunoblot

| binding [1] | binding [2] | binding [3] | Substance |
| --- | --- | --- | --- |
| binds |  |  | VEGFR2 (from UniProt P35918 20-1345) (receptor) |
| binds weakly | no binding |  | BRAF (endogenous, pMECs) (from UniProt P28028 1-751) (enzyme) |

Second part, the substance before the results:

| Substance | binding [1] | binding [2] | binding [3] |
| --- | --- | --- | --- |
| β catenin (from UniProt Q02248 1-781) | binds |  |  |
| RAF1 (endogenous, pMECs) (from UniProt Q99N57 1-648) (enzyme) |  | binds |  |
| RHO‐dependent kinase α (from UniProt P70336 1-1388) (enzyme) |  | binds | binds |
